The list shows a part of the results. Hit calls seldom repeat between salt and free forms of one compound.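 In K562 cells expressing nanoluciferase-fused kinases, luminescence was recorded at 4 h intervals between 2 and 18 h, normalized as percent of control with DMSO at 100% and a positive control at 0%. A significant (2 sigma) signal drop marks a time point as decreased. The authors' rule for a hit is not shown and takes in more than the number of time points.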
What was measured:
Assay in all cases: kinase-Nluc reporter destabilization hit call (1 = scored as downregulated) (binary); higher = compound decreases kinase abundance
Details in all cases: K562, 2-18 h
PDPK1 = PDPK1 (UniProt O15530)
PIK4CA = PIK4CA (UniProt P42356)
PIK4CB = PIK4CB (UniProt Q9UBF8)
PLK1 = PLK1 (UniProt P53350)
PRKAA1 = PRKAA1 (UniProt Q13131)
PRKCA = PRKCA (UniProt P17252)
PTK2 = PTK2 (UniProt Q05397)
PTK2B = PTK2B (UniProt Q14289)
RAF1 = RAF1 (UniProt P04049)
[1] = target: RAF1_S257L (clone: RAF1_mut) (UniProt P04049)
RET = RET (UniProt P07949)
[2] = target: RET_M918T (clone: RET_mut) (UniProt P07949)
RIOK1 = RIOK1 (UniProt Q9BRS2)
RIPK1 = RIPK1 (UniProt Q13546)
RIPK2 = RIPK2 (UniProt O43353)
ROR2 = ROR2 (UniProt Q01974)
RPS6KA1 = RPS6KA1 (UniProt Q15418)
SPHK1 = SPHK1 (UniProt Q9NYA1)
SRC = SRC (UniProt P12931)
STK24 = STK24 (UniProt Q9Y6E0)

Protein sequences, listed by entry. Tags and fused reporters are not part of them.
UniProt P42356, whole entry, looked up: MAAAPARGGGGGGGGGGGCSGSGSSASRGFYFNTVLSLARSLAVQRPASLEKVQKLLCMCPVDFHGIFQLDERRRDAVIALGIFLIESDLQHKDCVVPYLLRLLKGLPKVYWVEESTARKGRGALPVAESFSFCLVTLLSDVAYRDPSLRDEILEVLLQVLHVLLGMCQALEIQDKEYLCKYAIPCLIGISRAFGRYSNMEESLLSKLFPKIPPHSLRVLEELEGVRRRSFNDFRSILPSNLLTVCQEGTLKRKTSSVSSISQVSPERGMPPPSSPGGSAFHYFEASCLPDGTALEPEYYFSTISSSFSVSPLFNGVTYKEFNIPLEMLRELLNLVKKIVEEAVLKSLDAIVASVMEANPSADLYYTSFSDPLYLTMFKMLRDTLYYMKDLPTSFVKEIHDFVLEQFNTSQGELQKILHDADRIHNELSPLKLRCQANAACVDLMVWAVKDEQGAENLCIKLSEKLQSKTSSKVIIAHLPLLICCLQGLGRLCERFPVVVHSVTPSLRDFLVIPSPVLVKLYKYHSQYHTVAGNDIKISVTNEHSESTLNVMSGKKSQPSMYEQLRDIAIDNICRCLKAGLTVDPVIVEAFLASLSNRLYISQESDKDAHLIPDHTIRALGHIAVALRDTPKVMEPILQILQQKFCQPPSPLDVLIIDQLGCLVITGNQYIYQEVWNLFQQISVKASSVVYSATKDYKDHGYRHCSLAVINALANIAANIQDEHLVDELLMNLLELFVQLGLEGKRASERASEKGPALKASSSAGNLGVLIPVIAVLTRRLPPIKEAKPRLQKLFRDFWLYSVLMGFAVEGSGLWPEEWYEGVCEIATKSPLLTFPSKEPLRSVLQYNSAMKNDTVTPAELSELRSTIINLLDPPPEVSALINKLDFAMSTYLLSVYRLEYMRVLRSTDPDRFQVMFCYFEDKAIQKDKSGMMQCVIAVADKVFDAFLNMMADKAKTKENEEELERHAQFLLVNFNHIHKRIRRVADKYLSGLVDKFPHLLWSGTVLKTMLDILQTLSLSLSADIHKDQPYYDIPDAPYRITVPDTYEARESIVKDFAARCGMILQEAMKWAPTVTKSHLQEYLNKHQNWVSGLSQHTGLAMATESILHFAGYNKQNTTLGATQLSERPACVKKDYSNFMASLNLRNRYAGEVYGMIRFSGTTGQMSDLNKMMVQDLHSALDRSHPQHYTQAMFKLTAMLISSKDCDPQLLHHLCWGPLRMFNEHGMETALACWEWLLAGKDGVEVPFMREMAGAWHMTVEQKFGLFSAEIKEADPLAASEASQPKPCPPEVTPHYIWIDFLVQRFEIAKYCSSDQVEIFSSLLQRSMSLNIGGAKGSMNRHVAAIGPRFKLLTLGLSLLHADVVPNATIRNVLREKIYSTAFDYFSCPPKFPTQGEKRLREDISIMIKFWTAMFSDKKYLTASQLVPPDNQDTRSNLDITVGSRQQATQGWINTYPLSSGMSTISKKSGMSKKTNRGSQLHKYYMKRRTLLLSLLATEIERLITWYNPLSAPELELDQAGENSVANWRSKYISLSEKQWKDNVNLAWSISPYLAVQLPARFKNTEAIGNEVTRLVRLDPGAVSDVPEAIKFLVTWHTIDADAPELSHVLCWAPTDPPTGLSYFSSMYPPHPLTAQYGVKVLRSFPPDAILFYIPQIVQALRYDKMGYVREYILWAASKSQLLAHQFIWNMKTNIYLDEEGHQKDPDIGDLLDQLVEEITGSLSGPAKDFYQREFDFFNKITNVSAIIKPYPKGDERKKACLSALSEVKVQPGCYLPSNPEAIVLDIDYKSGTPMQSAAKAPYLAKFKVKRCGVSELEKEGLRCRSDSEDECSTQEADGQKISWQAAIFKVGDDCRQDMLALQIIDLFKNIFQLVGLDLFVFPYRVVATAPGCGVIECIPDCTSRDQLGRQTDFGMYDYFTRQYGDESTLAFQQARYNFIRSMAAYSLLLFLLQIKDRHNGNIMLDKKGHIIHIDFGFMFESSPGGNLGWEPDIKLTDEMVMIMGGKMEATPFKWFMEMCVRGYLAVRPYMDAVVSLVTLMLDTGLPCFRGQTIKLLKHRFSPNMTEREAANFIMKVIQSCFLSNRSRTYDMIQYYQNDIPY
UniProt P53350, whole entry: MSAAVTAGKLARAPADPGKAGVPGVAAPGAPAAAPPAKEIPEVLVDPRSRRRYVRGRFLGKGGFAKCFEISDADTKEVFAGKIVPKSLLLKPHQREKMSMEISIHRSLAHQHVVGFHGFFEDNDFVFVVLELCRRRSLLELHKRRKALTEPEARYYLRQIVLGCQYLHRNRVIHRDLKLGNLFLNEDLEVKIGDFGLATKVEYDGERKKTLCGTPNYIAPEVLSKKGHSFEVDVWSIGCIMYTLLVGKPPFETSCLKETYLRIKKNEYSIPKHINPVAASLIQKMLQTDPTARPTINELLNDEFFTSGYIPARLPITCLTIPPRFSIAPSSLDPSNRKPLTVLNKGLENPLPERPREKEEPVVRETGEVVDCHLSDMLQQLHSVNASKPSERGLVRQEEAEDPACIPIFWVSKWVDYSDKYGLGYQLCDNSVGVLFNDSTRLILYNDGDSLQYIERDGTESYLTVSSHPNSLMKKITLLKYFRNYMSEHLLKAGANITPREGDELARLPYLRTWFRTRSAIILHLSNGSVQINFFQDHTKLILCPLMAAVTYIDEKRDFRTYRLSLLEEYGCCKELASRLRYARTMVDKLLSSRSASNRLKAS
UniProt Q14289, whole entry, looked up: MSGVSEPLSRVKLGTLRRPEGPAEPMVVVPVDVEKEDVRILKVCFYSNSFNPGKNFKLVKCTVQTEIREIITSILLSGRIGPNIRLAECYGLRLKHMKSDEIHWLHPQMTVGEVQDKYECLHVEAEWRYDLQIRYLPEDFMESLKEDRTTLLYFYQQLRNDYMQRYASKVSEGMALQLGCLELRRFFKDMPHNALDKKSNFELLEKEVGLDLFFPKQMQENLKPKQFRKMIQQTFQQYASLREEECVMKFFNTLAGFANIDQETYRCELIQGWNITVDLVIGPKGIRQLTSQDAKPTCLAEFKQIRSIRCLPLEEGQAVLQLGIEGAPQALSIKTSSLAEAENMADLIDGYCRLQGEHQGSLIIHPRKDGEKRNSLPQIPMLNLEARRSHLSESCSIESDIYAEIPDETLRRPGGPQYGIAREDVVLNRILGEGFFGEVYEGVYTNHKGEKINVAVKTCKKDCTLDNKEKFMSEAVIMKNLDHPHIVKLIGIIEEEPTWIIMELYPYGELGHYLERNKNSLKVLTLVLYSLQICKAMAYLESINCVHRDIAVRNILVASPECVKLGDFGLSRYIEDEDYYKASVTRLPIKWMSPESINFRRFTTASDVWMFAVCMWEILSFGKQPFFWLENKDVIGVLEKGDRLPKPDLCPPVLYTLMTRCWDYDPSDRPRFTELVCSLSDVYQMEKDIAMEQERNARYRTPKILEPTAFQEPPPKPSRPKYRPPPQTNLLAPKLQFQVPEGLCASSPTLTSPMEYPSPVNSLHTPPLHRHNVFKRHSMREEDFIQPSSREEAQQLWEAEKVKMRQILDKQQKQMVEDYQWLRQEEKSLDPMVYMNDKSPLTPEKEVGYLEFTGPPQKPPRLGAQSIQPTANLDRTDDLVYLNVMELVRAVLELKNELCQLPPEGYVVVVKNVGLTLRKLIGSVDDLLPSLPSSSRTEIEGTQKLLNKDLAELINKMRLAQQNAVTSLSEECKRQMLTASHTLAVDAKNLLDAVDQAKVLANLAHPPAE
UniProt Q01974, whole entry: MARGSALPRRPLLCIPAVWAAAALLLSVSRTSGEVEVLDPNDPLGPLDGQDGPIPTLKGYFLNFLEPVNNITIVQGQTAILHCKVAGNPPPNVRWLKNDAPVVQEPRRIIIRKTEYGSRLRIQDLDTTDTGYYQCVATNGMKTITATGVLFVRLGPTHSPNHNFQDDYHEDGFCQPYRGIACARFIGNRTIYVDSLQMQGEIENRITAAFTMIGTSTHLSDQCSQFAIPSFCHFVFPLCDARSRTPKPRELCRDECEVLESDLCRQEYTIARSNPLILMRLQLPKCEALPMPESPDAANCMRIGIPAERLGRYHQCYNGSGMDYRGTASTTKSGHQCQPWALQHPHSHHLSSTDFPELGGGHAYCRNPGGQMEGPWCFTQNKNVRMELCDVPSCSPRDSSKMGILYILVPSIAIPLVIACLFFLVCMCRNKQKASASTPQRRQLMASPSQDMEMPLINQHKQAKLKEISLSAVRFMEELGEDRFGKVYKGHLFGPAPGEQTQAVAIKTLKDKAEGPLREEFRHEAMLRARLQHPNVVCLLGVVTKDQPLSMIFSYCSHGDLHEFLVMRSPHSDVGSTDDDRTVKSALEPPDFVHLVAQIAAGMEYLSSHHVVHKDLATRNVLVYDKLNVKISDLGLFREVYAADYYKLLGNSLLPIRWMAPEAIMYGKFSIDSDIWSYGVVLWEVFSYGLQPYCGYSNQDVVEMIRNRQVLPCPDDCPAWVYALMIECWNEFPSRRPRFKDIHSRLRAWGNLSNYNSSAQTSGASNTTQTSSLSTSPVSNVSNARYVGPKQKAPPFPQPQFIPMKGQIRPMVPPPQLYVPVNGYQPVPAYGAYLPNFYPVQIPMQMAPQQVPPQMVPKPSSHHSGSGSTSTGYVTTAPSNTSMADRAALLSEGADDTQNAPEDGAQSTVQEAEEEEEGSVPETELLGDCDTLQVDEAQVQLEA
UniProt Q15418, whole entry: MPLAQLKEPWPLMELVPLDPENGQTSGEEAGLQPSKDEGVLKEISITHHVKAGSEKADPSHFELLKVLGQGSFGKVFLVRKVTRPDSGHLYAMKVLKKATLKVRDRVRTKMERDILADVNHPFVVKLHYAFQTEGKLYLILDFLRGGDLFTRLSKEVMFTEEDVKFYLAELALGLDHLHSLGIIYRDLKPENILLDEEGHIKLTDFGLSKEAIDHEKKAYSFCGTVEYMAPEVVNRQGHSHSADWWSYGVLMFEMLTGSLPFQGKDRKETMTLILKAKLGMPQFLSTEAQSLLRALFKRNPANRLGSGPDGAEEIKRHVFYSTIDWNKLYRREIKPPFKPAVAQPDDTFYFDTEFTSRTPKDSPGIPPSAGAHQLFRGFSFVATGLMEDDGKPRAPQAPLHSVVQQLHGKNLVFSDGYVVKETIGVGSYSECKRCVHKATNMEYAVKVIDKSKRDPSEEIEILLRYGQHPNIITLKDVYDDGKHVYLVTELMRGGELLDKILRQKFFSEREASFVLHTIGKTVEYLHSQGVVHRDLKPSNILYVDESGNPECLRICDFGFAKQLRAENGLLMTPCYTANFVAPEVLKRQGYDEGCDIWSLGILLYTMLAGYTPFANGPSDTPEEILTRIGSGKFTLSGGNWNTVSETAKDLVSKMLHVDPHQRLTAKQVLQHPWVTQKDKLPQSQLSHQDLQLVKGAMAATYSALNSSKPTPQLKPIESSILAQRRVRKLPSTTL
UniProt Q9NYA1, whole entry: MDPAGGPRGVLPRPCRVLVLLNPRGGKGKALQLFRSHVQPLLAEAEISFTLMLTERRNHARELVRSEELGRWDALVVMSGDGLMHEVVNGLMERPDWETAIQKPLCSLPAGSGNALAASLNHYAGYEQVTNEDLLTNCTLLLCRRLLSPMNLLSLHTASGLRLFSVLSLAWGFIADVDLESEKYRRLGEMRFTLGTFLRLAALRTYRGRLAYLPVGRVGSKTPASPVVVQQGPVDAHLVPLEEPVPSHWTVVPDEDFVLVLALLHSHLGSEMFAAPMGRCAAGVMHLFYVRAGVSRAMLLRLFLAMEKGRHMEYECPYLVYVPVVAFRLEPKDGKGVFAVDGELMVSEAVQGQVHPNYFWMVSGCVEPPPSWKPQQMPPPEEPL

Measured: kinase-Nluc reporter destabilization hit call

CCCCCCCCCCCCc1ccc(S(=O)(=O)Nc2nncs2)cc1
inactive: PDPK1; 10 µM 0 | PIK4CA; 10 µM 0 | PIK4CB; 10 µM 0 | PLK1; 10 µM 0 | PRKAA1; 10 µM 0 | PRKCA; 10 µM 0 | PTK2; 10 µM 0 | PTK2B; 10 µM 0 | RAF1; 10 µM 0 | [1]; 10 µM 0 | RET; 10 µM 0 | [2]; 10 µM 0 | RIOK1; 10 µM 0 | RIPK1; 10 µM 0 | RIPK2; 10 µM 0 | ROR2; 10 µM 0 | RPS6KA1; 10 µM 0 | SPHK1; 10 µM 0 | SRC; 10 µM 0 | STK24; 10 µM 0

COc1cc(Nc2c(C#N)cnc3cc(OCCCN4CCN(C)CC4)c(OC)cc23)c(Cl)cc1Cl [Bosutinib]
active: [1]; 2.5 µM 1
inactive: PDPK1; 2.5 µM 0 | PIK4CA; 2.5 µM 0 | PIK4CB; 2.5 µM 0 | PLK1; 2.5 µM 0 | PRKAA1; 2.5 µM 0 | PRKCA; 2.5 µM 0 | PTK2; 2.5 µM 0 | PTK2B; 2.5 µM 0 | RAF1; 2.5 µM 0 | RET; 2.5 µM 0 | [2]; 2.5 µM 0 | RIOK1; 2.5 µM 0 | RIPK1; 2.5 µM 0 | RIPK2; 2.5 µM 0 | ROR2; 2.5 µM 0 | RPS6KA1; 2.5 µM 0 | SPHK1; 2.5 µM 0 | SRC; 2.5 µM 0 | STK24; 2.5 µM 0

Cc1ccc2c(=O)c3cccc(CC(=O)O)c3oc2c1C [Vadimezan]
inactive: PDPK1; 10 µM 0 | PIK4CA; 10 µM 0 | PIK4CB; 10 µM 0 | PLK1; 10 µM 0 | PRKAA1; 10 µM 0 | PRKCA; 10 µM 0 | PTK2; 10 µM 0 | PTK2B; 10 µM 0 | RAF1; 10 µM 0 | [1]; 10 µM 0 | RET; 10 µM 0 | [2]; 10 µM 0 | RIOK1; 10 µM 0 | RIPK1; 10 µM 0 | RIPK2; 10 µM 0 | ROR2; 10 µM 0 | RPS6KA1; 10 µM 0 | SPHK1; 10 µM 0 | SRC; 10 µM 0 | STK24; 10 µM 0

CCCOc1ccc(C=C2SC(=O)NC2=O)cc1
inactive: PDPK1; 10 µM 0 | PIK4CA; 10 µM 0 | PIK4CB; 10 µM 0 | PLK1; 10 µM 0 | PRKAA1; 10 µM 0 | PRKCA; 10 µM 0 | PTK2; 10 µM 0 | PTK2B; 10 µM 0 | RAF1; 10 µM 0 | [1]; 10 µM 0 | RET; 10 µM 0 | [2]; 10 µM 0 | RIOK1; 10 µM 0 | RIPK1; 10 µM 0 | RIPK2; 10 µM 0 | ROR2; 10 µM 0 | RPS6KA1; 10 µM 0 | SPHK1; 10 µM 0 | SRC; 10 µM 0 | STK24; 10 µM 0

NC1(C(=O)N[C@@H](CCO)c2ccc(Cl)cc2)CCN(c2nc[nH]c3nccc2-3)CC1 [Capivasertib]
inactive: PDPK1; 10 µM 0 | PIK4CA; 10 µM 0 | PIK4CB; 10 µM 0 | PLK1; 10 µM 0 | PRKAA1; 10 µM 0 | PRKCA; 10 µM 0 | PTK2; 10 µM 0 | PTK2B; 10 µM 0 | RAF1; 10 µM 0 | [1]; 10 µM 0 | RET; 10 µM 0 | [2]; 10 µM 0 | RIOK1; 10 µM 0 | RIPK1; 10 µM 0 | RIPK2; 10 µM 0 | ROR2; 10 µM 0 | RPS6KA1; 10 µM 0 | SPHK1; 10 µM 0 | SRC; 10 µM 0 | STK24; 10 µM 0

O=C(Nc1cccc(Nc2nccc(Nc3cccc(C(F)(F)F)c3)n2)c1)C1CC1 [Aurora kinase inhibitor-3]
inactive: PDPK1; 2.5 µM 0 | PIK4CA; 2.5 µM 0 | PIK4CB; 2.5 µM 0 | PLK1; 2.5 µM 0 | PRKAA1; 2.5 µM 0 | PRKCA; 2.5 µM 0 | PTK2; 2.5 µM 0 | PTK2B; 2.5 µM 0 | RAF1; 2.5 µM 0 | [1]; 2.5 µM 0 | RET; 2.5 µM 0 | [2]; 2.5 µM 0 | RIOK1; 2.5 µM 0 | RIPK1; 2.5 µM 0 | RIPK2; 2.5 µM 0 | ROR2; 2.5 µM 0 | RPS6KA1; 2.5 µM 0 | SPHK1; 2.5 µM 0 | SRC; 2.5 µM 0 | STK24; 2.5 µM 0

CC(C)N(CCC(=O)c1ccc2ccccc2c1)Cc1ccccc1
inactive: PDPK1; 10 µM 0 | PIK4CA; 10 µM 0 | PIK4CB; 10 µM 0 | PLK1; 10 µM 0 | PRKAA1; 10 µM 0 | PRKCA; 10 µM 0 | PTK2; 10 µM 0 | PTK2B; 10 µM 0 | RAF1; 10 µM 0 | [1]; 10 µM 0 | RET; 10 µM 0 | [2]; 10 µM 0 | RIOK1; 10 µM 0 | RIPK1; 10 µM 0 | RIPK2; 10 µM 0 | ROR2; 10 µM 0 | RPS6KA1; 10 µM 0 | SPHK1; 10 µM 0 | SRC; 10 µM 0 | STK24; 10 µM 0

CCn1c(=O)c(-c2cc(NC(=O)Nc3ccccc3)c(F)cc2Br)cc2cnc(NC)cc21 [Ripretinib]
inactive: PDPK1; 10 µM 0 | PIK4CA; 10 µM 0 | PIK4CB; 10 µM 0 | PLK1; 10 µM 0 | PRKAA1; 10 µM 0 | PRKCA; 10 µM 0 | PTK2; 10 µM 0 | PTK2B; 10 µM 0 | RAF1; 10 µM 0 | [1]; 10 µM 0 | RET; 10 µM 0 | [2]; 10 µM 0 | RIOK1; 10 µM 0 | RIPK1; 10 µM 0 | RIPK2; 10 µM 0 | ROR2; 10 µM 0 | RPS6KA1; 10 µM 0 | SPHK1; 10 µM 0 | SRC; 10 µM 0 | STK24; 10 µM 0

Cc1ccc(O)cc1Nc1ccnc(Nc2cccc(C(N)=O)c2)n1 [Lck inhibitor 2]
inactive: PDPK1; 10 µM 0 | PIK4CA; 10 µM 0 | PIK4CB; 10 µM 0 | PLK1; 10 µM 0 | PRKAA1; 10 µM 0 | PRKCA; 10 µM 0 | PTK2; 10 µM 0 | PTK2B; 10 µM 0 | RAF1; 10 µM 0 | [1]; 10 µM 0 | RET; 10 µM 0 | [2]; 10 µM 0 | RIOK1; 10 µM 0 | RIPK1; 10 µM 0 | RIPK2; 10 µM 0 | ROR2; 10 µM 0 | RPS6KA1; 10 µM 0 | SPHK1; 10 µM 0 | SRC; 10 µM 0 | STK24; 10 µM 0

Reference: the supplement of paper PMC12823440, “Inhibitors supercharge kinase turnover through native proteolytic circuits” (Nature, 2025)
